Literature values in patent publication US8921394B2, “Prolylcarboxypeptidase inhibitors” (Merck Sharp & Dohme Corp., priority 2010, dated 2014).
Some of these results come from one statement about several compounds together. Some ranges recur; such a range may be that of the whole group of compounds.

Settings: literature studies; cited from earlier work

Structure (SMILES): CCCCCCCCCCC[C@@H](C[C@@H]1OC(=O)[C@H]1CCCCCC)OC(=O)[C@H](CC(C)C)NC=O [orlistat]
- weight loss of body weight for drug compared to placebo: 5%-10%
